This is an account of results in doi:10.1101/2024.01.03.574047.

Amino acid sequences for entries named in this document (tags omitted).
UniProt F4JLS1: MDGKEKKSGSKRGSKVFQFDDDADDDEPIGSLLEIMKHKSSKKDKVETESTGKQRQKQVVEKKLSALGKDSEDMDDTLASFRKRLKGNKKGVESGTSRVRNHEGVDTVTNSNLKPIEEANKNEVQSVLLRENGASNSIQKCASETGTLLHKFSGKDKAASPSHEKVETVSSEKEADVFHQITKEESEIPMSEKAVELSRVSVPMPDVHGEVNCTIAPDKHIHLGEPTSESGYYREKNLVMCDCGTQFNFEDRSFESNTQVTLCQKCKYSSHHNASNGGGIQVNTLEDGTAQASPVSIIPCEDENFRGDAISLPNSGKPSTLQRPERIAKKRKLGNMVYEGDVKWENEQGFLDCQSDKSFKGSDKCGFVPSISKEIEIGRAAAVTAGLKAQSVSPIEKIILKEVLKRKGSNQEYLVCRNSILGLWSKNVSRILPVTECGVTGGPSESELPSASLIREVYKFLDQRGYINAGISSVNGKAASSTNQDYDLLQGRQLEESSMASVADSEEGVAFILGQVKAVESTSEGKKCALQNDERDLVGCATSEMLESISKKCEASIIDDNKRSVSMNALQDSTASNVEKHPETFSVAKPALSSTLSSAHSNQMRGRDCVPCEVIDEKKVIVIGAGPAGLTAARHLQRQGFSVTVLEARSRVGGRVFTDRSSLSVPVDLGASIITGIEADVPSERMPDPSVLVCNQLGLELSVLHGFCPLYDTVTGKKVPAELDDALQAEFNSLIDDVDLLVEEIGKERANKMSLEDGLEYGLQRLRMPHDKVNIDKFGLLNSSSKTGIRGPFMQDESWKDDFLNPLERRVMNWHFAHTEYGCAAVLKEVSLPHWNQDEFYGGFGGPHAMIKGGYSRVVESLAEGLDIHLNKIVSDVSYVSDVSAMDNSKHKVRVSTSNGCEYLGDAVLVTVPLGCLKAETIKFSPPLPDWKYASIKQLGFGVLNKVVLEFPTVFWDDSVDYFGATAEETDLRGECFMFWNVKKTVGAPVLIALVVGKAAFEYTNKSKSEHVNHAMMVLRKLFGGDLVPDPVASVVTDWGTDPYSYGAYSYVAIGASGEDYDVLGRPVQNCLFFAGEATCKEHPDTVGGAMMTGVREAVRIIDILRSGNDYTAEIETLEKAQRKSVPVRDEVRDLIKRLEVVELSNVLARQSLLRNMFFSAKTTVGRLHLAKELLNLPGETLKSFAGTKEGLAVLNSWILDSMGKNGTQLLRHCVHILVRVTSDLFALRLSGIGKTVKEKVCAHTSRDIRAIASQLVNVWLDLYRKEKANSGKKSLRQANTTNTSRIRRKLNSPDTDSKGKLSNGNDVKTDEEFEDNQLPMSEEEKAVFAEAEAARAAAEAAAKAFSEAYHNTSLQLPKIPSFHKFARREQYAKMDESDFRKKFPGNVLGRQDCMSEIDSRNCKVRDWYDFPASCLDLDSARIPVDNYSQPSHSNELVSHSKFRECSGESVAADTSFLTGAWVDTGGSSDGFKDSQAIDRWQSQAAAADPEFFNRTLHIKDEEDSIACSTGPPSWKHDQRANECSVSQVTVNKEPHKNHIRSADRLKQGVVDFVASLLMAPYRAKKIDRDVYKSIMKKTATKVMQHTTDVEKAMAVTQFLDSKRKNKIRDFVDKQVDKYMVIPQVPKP
UniProt Q6EVK6: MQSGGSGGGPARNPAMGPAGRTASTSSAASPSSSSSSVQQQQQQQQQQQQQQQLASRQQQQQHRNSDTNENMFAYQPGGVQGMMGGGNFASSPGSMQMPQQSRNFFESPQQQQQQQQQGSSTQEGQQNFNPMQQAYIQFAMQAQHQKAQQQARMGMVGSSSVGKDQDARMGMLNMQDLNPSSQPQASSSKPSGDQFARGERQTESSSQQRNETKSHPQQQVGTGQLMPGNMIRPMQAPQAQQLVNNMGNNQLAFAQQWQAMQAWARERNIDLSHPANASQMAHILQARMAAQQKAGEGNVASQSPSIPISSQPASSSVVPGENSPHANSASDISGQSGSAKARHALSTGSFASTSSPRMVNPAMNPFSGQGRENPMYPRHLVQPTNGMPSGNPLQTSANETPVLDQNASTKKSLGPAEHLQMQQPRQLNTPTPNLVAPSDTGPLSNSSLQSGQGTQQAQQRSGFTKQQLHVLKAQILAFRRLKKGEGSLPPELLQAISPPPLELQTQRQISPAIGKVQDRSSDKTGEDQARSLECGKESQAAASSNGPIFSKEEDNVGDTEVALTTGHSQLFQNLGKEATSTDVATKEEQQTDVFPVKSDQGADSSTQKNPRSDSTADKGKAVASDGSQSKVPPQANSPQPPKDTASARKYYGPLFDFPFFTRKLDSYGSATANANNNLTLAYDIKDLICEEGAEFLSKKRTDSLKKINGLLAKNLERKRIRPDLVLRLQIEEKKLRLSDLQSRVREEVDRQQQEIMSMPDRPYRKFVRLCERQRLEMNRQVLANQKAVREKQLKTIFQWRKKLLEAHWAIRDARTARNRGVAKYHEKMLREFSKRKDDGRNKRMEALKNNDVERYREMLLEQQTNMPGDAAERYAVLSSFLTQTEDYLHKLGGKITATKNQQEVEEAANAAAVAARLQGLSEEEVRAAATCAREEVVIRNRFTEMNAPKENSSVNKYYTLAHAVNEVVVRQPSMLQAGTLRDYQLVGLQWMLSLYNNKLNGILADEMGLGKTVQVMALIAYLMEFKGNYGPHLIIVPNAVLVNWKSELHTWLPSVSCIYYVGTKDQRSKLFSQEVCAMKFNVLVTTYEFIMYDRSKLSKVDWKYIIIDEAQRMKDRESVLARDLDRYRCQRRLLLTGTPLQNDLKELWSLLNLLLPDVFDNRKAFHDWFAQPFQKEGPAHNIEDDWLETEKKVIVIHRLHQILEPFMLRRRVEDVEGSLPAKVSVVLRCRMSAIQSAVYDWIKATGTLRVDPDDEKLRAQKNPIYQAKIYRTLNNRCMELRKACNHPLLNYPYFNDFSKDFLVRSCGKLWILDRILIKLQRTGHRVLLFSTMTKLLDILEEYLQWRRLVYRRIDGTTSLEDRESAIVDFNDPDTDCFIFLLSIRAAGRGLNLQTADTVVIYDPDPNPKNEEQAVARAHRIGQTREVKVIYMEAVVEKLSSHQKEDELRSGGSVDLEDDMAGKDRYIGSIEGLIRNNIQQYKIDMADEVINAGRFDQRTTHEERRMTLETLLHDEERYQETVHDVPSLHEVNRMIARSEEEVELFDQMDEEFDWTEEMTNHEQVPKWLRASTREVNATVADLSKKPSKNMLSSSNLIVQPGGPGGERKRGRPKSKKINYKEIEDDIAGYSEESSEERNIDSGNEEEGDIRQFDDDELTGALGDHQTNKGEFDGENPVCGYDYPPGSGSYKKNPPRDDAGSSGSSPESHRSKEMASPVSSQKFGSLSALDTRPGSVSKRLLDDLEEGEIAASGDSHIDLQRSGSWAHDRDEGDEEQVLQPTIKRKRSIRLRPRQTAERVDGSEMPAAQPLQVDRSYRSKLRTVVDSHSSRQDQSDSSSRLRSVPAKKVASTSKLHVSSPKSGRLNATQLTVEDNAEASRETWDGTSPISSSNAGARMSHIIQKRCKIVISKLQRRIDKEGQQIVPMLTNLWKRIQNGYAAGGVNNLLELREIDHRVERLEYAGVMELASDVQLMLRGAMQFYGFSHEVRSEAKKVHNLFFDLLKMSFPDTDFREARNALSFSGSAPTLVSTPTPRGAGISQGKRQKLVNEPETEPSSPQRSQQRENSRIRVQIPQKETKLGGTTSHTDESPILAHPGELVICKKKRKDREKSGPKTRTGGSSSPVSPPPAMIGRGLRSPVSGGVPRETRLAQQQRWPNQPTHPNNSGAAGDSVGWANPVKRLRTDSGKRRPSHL
UniProt Q9C5T4: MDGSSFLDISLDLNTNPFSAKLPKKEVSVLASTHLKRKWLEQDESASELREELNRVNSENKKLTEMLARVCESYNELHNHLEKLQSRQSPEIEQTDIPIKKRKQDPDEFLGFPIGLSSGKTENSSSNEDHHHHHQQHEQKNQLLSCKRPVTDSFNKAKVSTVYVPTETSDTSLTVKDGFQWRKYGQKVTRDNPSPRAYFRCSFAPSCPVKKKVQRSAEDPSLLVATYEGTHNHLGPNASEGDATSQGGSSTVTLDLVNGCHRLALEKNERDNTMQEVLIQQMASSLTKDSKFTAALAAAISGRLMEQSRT

Assay [1] deals with NPR1-3xHA-TurboID (Arabidopsis) (UniProt P93002). In words: proximity labelling; TurboID in planta: 3-week-old 35S:NPR1-3xHA-TbID/npr1-2 plants, 1 mM SA, 1 h later 50 uM biotin for 3 h; streptavidin beads, stringent or harsh washes; label-free quantitative LC-MS/MS against YFP-YFP-TbID control.
In assay [2] the target is T1, NPR1-3xHA-TurboID (Arabidopsis), P93002.
T1 chain: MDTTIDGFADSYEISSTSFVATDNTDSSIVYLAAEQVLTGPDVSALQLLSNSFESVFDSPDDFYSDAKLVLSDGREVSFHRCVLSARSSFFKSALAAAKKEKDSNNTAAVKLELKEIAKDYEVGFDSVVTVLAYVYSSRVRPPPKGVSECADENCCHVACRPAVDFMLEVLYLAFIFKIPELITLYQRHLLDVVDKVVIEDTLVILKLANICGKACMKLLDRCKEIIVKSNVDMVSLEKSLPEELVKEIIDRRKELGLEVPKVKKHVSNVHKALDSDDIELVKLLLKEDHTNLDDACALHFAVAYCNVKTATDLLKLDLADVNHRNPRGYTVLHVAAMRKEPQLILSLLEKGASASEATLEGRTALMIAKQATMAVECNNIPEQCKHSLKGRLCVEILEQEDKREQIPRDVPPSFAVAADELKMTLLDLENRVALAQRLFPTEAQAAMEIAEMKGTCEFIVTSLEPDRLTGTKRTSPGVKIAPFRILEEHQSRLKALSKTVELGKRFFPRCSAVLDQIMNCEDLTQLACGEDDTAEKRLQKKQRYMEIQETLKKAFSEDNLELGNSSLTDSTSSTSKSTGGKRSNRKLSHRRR
The description is as above. Particulars: remark: other sources report otherwise.

These are yes or no findings as the source states them, for the method shown. Binding seen in cells or lysates may run through a third protein. These calls come from enrichment with a bait or labelling near it, and not all partners need be listed.

Turning to “histone demethylase LSD1-like 3 (from UniProt F4JLS1 1-1628)”, in assay [1], the binding entry is “binds”. Regarding BRAHMA (from UniProt Q6EVK6 1-2193), the binding result in assay [1] is reported as “binds”. On the same count and under the same terms, next, WRKY18 (from UniProt Q9C5T4 1-310): “binds”.

B1: NPR1-like protein 4 (protein, UniProt Q5ICL9 1-574)
chain: MAATAIEPSSSISFTSSHLSNPSPVVTTYHSAANLEELSSNLEQLLTNPDCDYTDAEIIIEEEANPVSVHRCVLAARSKFFLDLFKKDKDSSEKKPKYQMKDLLPYGNVGREAFLHFLSYIYTGRLKPFPIEVSTCVDSVCAHDSCKPAIDFAVELMYASFVFQIPDLVSSFQRKLRNYVEKSLVENVLPILLVAFHCDLTQLLDQCIERVARSDLDRFCIEKELPLEVLEKIKQLRVKSVNIPEVEDKSIERTGKVLKALDSDDVELVKLLLTESDITLDQANGLHYAVAYSDPKVVTQVLDLDMADVNFRNSRGYTVLHIAAMRREPTIIIPLIQKGANASDFTFDGRSAVNICRRLTRPKDYHTKTSRKEPSKYRLCIDILEREIRRNPLVSGDTPTCSHSMPEDLQMRLLYLEKRVGLAQLFFPAEANVAMDVANVEGTSECTGLLTPPPSNDTTENLGKVDLNETPYVQTKRMLTRMKALMKTVETGRRYFPSCYEVLDKYMDQYMDEEIPDMSYPEKGTVKERRQKRMRYNELKNDVKKAYSKDKVARSCLSSSSPASSLREALENPT
Consider B1, for which the binding entry in assay [1] is on record as “binds”.

B2: NIM1-interacting 1 (protein, UniProt Q9FNZ5 1-142)
chain: MYPKQFSLYNYSLETMSKDENVESKETIRVDKRVREDEEEEEEKKIDTFFKLIKHYQEARKRRREELAENSGVVRRKSNGGERSGIVVPAFQPEDFSQCRTGLKPPLMFVSDHKEENTKVEQEEDQTEERNEDKALDLNLAL
With B2, in assay [1], the binding entry is reported as “binds”.

B3: NPR1-like protein 3, Q8L746 1-586 (protein)
chain: MATLTEPSSSLSFTSSHFSYGSIGSNHFSSSSASNPEVVSLTKLSSNLEQLLSNSDCDYSDAEIIVDGVPVGVHRCILAARSKFFQDLFKKEKKISKTEKPKYQLREMLPYGAVAHEAFLYFLSYIYTGRLKPFPLEVSTCVDPVCSHDCCRPAIDFVVQLMYASSVLQVPELVSSFQRRLCNFVEKTLVENVLPILMVAFNCKLTQLLDQCIERVARSDLYRFCIEKEVPPEVAEKIKQLRLISPQDEETSPKISEKLLERIGKILKALDSDDVELVKLLLTESDITLDQANGLHYSVVYSDPKVVAEILALDMGDVNYRNSRGYTVLHFAAMRREPSIIISLIDKGANASEFTSDGRSAVNILRRLTNPKDYHTKTAKGRESSKARLCIDILEREIRKNPMVLDTPMCSISMPEDLQMRLLYLEKRVGLAQLFFPTEAKVAMDIGNVEGTSEFTGLSPPSSGLTGNLSQVDLNETPHMQTQRLLTRMVALMKTVETGRRFFPYGSEVLDKYMAEYIDDDILDDFHFEKGSTHERRLKRMRYRELKDDVQKAYSKDKESKIARSCLSASSSPSSSSIRDDLHNTT
For B3, the binding result in assay [2] is “binds”.
